# Results from PubChem BioAssay AID2685 (National Center for Advancing Translational Sciences (NCATS), 2010).
# Some of the results follow. Further columns of the screen follow, without active or inactive calls. The list favours compounds with an active or inconclusive main result. Words in brackets tell the shape of the fitted curve; partial curves, single points and poor fits give uncertain potencies.
# Assay: qHTS Assay for Lipid Storage Modulators in Drosophila S3 Cells;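 on cell number change: cells counted by Cell Tracker Red CMTPX staining in the red channel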
# Settings: BODIPY lipid droplet fluorescence, 18-24 h; for cell number change: measured here: cell count max response, cells fed with added oleic acid
# In short: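 Drosophila S3 cells got compounds at several concentrations plus oleic acid (400 uM solution). Laser-scanning cytometry with 488 nm excitation read lipid droplets at 500-530 nm and cells at 575-640 nm. Percent activity was relative to 20 uM Triacsin C.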
# [1] = measured here: cell number channel AC50, cells fed with added oleic acid
# [2] = measured here: lipid fluorescence (Fed channel) AC50, cells fed with added oleic acid
Structure (SMILES),AC50 [1],cell number change [%],AC50 [2]
O=C1CC(C(=O)Nc2ncccn2)C(c2ccccc2)O1 (centres undefined),"0.58 µM [rising, single point]",,
CC1CCN(c2ccc(-c3cccc(NC(=O)c4ccco4)c3)nn2)CC1,,25,"4.61 µM [rising, full curve]"
Cc1cc(C=O)c(C)n1-c1ccc(NC2CCCC2)c([N+](=O)[O-])c1,,-18.8,"29.1 µM [falling, single point]"
NS(=O)(=O)c1ccc(CCNC(=O)c2ccc(CS(=O)(=O)c3ccc(Br)cc3)o2)cc1,,5.27,
S=C(Nc1cccnc1)NC1CC2CCC1C2 (centres undefined),"2.91 µM [rising, single point]",16.8,"29.1 µM [falling, single point]"
CCCNC(=S)Nc1cccc(C(F)(F)F)c1,,3.53,
O=C(NC1CSCC1OC(=O)c1ccccc1)c1ccccc1 (centres undefined),,6.5,"14.6 µM [rising, single point]"
O=[N+]([O-])c1ccc(N2CCN(c3ccccn3)CC2)c(Cl)c1,,-11.4,"6.51 µM [rising, single point]"
CCS(=O)(=O)CCSc1nc2ccccc2s1,"29.1 µM [rising, single point]",36.6,"29.1 µM [rising, single point]"
O=C(Nc1cccc(S(=O)(=O)N2CCCCC2)c1)c1cc2ccccc2o1,,-13.4,"9.2 µM [falling, partial curve]"
COc1ccc(CN=C2NC(=O)CC(C(=O)Nc3ccc(Cl)cc3)S2)cc1 (centres undefined),"0.651 µM [rising, single point]",-10.4,
CCCCn1c(N)c(N(CC(C)C)C(=O)CCCn2c(=O)oc3ccccc32)c(=O)[nH]c1=O,,-11.4,
COCCn1cnc2c1c(=O)n(Cc1c(F)cccc1Cl)c(=O)n2Cc1ccccc1,,0.87,
COc1cc(C(=O)N/N=C/c2ccc(OC(=O)c3cccc(C)c3)c(OC)c2)ccc1O,,,"29.1 µM [rising, single point]"
CCOC(=O)c1[nH]c2ccccc2c1N=C(C)N(CC)CC,,6.66,"29.1 µM [rising, single point]"
CC1(C(=O)OCC(=O)Nc2ncc(Cl)cc2Cl)CC1(Cl)Cl (centres undefined),"0.82 µM [falling, single point]",89.2,
S=C(NC1CCCC1)NC1CCCC1,,49.5,
O=C1N(CN2C(=O)C3(OCCO3)c3ccccc32)c2ccccc2C12OCCO2,,2.29,"2.06 µM [rising, full curve]"
COc1ccc(C(CNC(=O)C(C)c2ccc3cc(OC)ccc3c2)N(C)C)cc1 (centres undefined),,,"18.4 µM [rising, single point]"
CCOc1ccccc1CNC(=O)Cn1ccc2cc(S(=O)(=O)N3CCCC3)ccc21,,-13.4,"29.1 µM [rising, partial curve, poor fit]"

# 3 compounds picked at random from the list so far, as already listed:
Structure (SMILES),AC50 [1],cell number change [%],AC50 [2]
CC1(C(=O)OCC(=O)Nc2ncc(Cl)cc2Cl)CC1(Cl)Cl (centres undefined),"0.82 µM [falling, single point]",89.2,
S=C(Nc1cccnc1)NC1CC2CCC1C2 (centres undefined),"2.91 µM [rising, single point]",16.8,"29.1 µM [falling, single point]"
O=C1N(CN2C(=O)C3(OCCO3)c3ccccc32)c2ccccc2C12OCCO2,,2.29,"2.06 µM [rising, full curve]"

# Remaining list, next part.

Structure (SMILES),AC50 [1],cell number change [%],AC50 [2]
CCOc1cc(NC(=S)Nc2cccc(OC)c2)c(OCC)cc1NC(=O)C1CC1,,14.4,
Cc1cc(NC(=O)c2cccc3c2C(=O)N(C2CCCCC2)C3)ccc1Br,,30,"0.651 µM [rising, partial curve, poor fit]"
Cc1cc2c(c(SCC(N)=O)n1)C(=O)OC2,"0.411 µM [falling, full curve, poor fit]",-28.5,"0.259 µM [falling, full curve]"
Clc1ccc(-c2nc3ncccn3c2Nc2ccc3c(c2)OCO3)cc1,,16.1,"18.4 µM [rising, single point]"
COCCNC(=O)NC(=O)CN1C(=O)NC(Cc2c[nH]c3ccccc23)C1=O (centres undefined),"29.1 µM [falling, single point]",-36.2,"6.51 µM [falling, single point]"
CCOC(=O)c1c(C)[nH]c(C)c1S(=O)(=O)N(C)CC(=O)Nc1ccccc1F,,-17,"29.1 µM [falling, partial curve, poor fit]"
CCn1c(=O)n(CC)c2cc(S(=O)(=O)Nc3c(C)cccc3C)ccc21,,-15,"0.00517 µM [falling, full curve, poor fit]"
CCNc1ccccc(-c2ccc3ccccc3n2)c1=O,,-17.8,"32.6 µM [rising, single point]"
CCc1ccccc1NC(=O)c1ccc(CN2CCC(Cc3ccccc3)CC2)cc1,,19.2,
COc1ccc(/C(C)=N/Nc2cccc(C(=O)O)c2)cc1OC,"2.06 µM [rising, partial curve]",,"4.11 µM [rising, partial curve]"
O=C(COC(=O)c1ccc2c(c1)S(=O)(=O)c1ccccc1C2=O)NC1CC1,,15.8,"0.184 µM [falling, full curve, poor fit]"
COc1cccc(OCCNC(=O)c2ccc(C)cc2)c1,"5.8 µM [rising, single point]",,
CCn1cc(C(=O)Nc2cccc(C(=O)OC)c2)c(=O)c2ccc(C)nc21,,15.9,"0.411 µM [rising, single point]"
COc1ccccc1N(CC(=O)NCCSCc1ccccc1)S(=O)(=O)c1ccc(C)cc1,,-1.32,"3.55 µM [falling, single point]"
Cc1cccc(-n2c(N)cc(=O)nc2SCC(=O)Nc2nnc(C)s2)c1,,-13.3,"6.51 µM [falling, single point]"
COc1ccc(C(=O)N2CCN(C(=O)Cc3ccccc3)CC2)cc1,"0.92 µM [falling, full curve, poor fit]",10.2,
Cc1cc(C)cc(OC(=O)C23CCC(C)(C(=O)O2)C3(C)C)c1 (centres undefined),,23.6,"2.82 µM [rising, partial curve]"
Cc1cccc(C)c1NC(=O)C1c2cccc[n+]2CC(=O)N1Cc1cccs1 (centres undefined),,7.62,"32.6 µM [rising, single point]"
O=C(Nc1ccc(F)cc1)C(=O)c1cn(CC(=O)N2CCOCC2)c2ccccc12,,-20.9,"29.1 µM [rising, single point]"
CN(Cc1ccccc1)C(=O)c1ccc2c(c1)OCCO2,"2.91 µM [rising, full curve, poor fit]",24.7,"0.092 µM [rising, full curve, poor fit]"
